# Among all 220,000 compounds or so, about 770 (0.35%) were called active. The inconclusive results got no clear call from the source; some entries with a clear call stand among them for comparison. Rule as the data show it: active = binding response below about 49% or above about 150%; inconclusive = no clear call, values can overlap the other calls; inactive = in between.
# Chains of the proteins cited; added tags and fusions are not shown.
# UniProt P09471, whole entry, looked up: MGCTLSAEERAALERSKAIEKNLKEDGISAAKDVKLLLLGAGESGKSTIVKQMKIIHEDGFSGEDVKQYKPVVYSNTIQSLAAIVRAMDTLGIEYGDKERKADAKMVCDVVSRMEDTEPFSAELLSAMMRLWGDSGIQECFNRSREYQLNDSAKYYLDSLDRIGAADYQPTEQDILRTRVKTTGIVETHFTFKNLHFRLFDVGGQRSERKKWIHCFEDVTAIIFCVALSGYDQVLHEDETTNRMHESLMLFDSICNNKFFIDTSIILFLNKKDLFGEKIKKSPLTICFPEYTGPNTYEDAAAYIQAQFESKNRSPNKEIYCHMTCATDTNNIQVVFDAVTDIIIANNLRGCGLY
# Target: Guanine nucleotide-binding protein G(o) subunit alpha (Homo sapiens) (UniProt P09471)
# Experiment: RGS7-Galphao binding modulators, primary screen, biochemical, multiplexed bead flow cytometry (AID 1439);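 also: fluorescent Galphao held in activated GDP-AlF4 state binding bead-coupled RGS7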
# Settings: at 10 µM, actives lie on both sides
row,SMILES,binding response (% of control)
1,CCCOc1ccc(C(=O)Nc2ccc(S(=O)(=O)Nc3cc(C)nc(C)n3)cc2)cc1,inconclusive: 109%
2,Cc1ccc(/C=N/NC(=O)c2nnn(-c3nonc3N)c2CSc2ccccc2)cc1,inconclusive: 76.5%
3,O=C(COc1ccc([N+](=O)[O-])cc1Cl)Nn1cnnc1,inconclusive: 16.3%
4,CCCC(=O)Nc1nnc(-c2ccc3c(c2)OCO3)s1,inconclusive: 76.9%
5,Nc1cc(=O)[nH]c(SCC(=O)NC2CCCc3ccccc32)n1 (configuration not stated),inconclusive: 99.7%
6,OC(c1ccccc1)c1nccc2ccccc12 (configuration not stated),inactive: 104%
7,O=C(COc1ccc2ccc(=O)oc2c1)N1CCN(c2ccccc2)CC1,inconclusive: 115%
8,Cc1ccc(S(=O)(=O)CCSc2ccc(C(F)(F)F)cn2)cc1,inconclusive: 103%
9,COc1ccc(OCc2cc(C(=O)O)c(C)o2)cc1,inconclusive: 91.2%
10,COC(=O)c1cccc(NC(=O)CC2NCCNC2=O)c1 (configuration not stated),inconclusive: 92.8%
11,CC(C)c1ccc(/C=N/n2cnnc2)cc1,inconclusive: 87.8%
12,CCCNC(=O)CN1C(=O)NC2(CCCc3cc(OC)ccc32)C1=O (configuration not stated),inactive: 110%
13,Cc1ncc(CN=Cc2ccc(Cl)cc2)c(N)n1,inconclusive: 176%
14,O=C(O)c1ccccc1C(=O)NC1CCCCNC1=O (configuration not stated),inconclusive: 71%
15,COCCCNC(=O)c1ccccc1Oc1ccccc1,inactive: 97.3%
16,O=C(c1cnn2c(C(F)(F)F)cc(-c3cccs3)nc12)N1CCCC1,inconclusive: 104%
17,NC(=O)Cn1nc([N+](=O)[O-])nc1Oc1ccccc1C(=O)N1CCOCC1,inactive: 99.7%
18,COc1ccccc1N1CC(C)(C)C(=O)N(C(=O)c2c(F)cccc2Cl)C1=S,inconclusive: 67.2%
19,Cc1ccc(-c2cc(-c3ccco3)c(C#N)c(=O)[nH]2)cc1,inconclusive: 96.6%

# Reformatted as tab-separated lines: five of the compounds above
row	SMILES	binding response (% of control)
1	CCCOc1ccc(C(=O)Nc2ccc(S(=O)(=O)Nc3cc(C)nc(C)n3)cc2)cc1	inconclusive: 109%
7	O=C(COc1ccc2ccc(=O)oc2c1)N1CCN(c2ccccc2)CC1	inconclusive: 115%
9	COc1ccc(OCc2cc(C(=O)O)c(C)o2)cc1	inconclusive: 91.2%
13	Cc1ncc(CN=Cc2ccc(Cl)cc2)c(N)n1	inconclusive: 176%
18	COc1ccccc1N1CC(C)(C)C(=O)N(C(=O)c2c(F)cccc2Cl)C1=S	inconclusive: 67.2%

# Later entries

row,SMILES,binding response (% of control)
1,O=C(NNc1ccc(Cl)cc1)C1CCC1,inconclusive: 198%
2,CCN(C(=O)CSc1nnc(-c2ccccc2Cl)n1C1CCCC1)C1CCS(=O)(=O)C1 (configuration not stated),inactive: 105%
3,CCOC(=O)c1cnn(-c2ncnc3c2cnn3C)c1N,inconclusive: 100%
4,CCOc1ccc(NS(=O)(=O)c2cc(NC(=O)c3cccc(C)c3)ccc2Cl)cc1,inactive: 98.2%
5,CCCOc1ccc(CSC(=N)N)cc1C(=O)OC,inconclusive: 78.9%
6,Cc1cc(NC(=O)Nc2cccc(Cl)c2)n(-c2ccccc2)n1,inconclusive: -141%
7,Cc1ccc(Cc2cc(-c3ccc(C)cc3)n[nH]c2=O)cc1,inconclusive: 845%
8,COc1ccccc1N(Cc1cc(=O)[nH]c2ccccc12)C(=O)c1ccc([N+](=O)[O-])cc1,inconclusive: 28.6%
9,CC(C)n1nc(C(=O)OCC(=O)N2CC(=O)Nc3ccccc32)c2ccccc2c1=O,inconclusive: 100%
10,CCc1ccccc1NC(=S)N1CCNC(=O)C1CC(=O)OC (configuration not stated),inconclusive: 92.6%
11,c1ccc2c(c1)OCC(c1nnc3sc(-c4cnccn4)nn13)O2 (configuration not stated),inactive: 99.3%
12,O=C(COC(=O)CCSc1ccccc1)Nc1cc(F)ccc1F,inconclusive: 112%
13,Cc1cc(C(=O)CSc2nnc(-c3ccccc3)n2Cc2ccc3c(c2)OCO3)c(C)n1C,inactive: 98.5%
14,C#CCOCCOCCOCCNc1nc(N2CCN(C(=O)[C@H](Cc3cc4ccccc4[nH]3)n3cc([C@@H](N)C(C)CC)nn3)CC2)nc(N2CCN(C(=O)[C@H](Cc3cc4ccccc4[nH]3)n3cc([C@@H](N)CC(C)C)nn3)CC2)n1 (some centres not stated),inactive: 107%
15,CCCn1c(CNc2ccc(Br)cc2)nc2ccccc21,inactive: 96.1%
16,CCN(CC)c1ccc(C(=O)N/N=C/c2ccc(OC)cc2OC)cc1,inconclusive: 108%
17,CCOCCCNC(=O)C(c1ccc(Cl)cc1)N(Cc1ccc2c(c1)OCO2)C(=O)CNC(C)=O (configuration not stated),inconclusive: 99.6%
18,Nc1nc2ncc(C(=O)c3cc(Cl)cc(Cl)c3O)cc2s1,inconclusive: 115%
19,COc1ccc(/C=[N+](\[O-])C2N(c3ccccc3)C(=S)SC2(C)C)cc1OC (configuration not stated),inconclusive: 109%

row,SMILES,binding response (% of control)
1,O=C(N/N=C/C=C/c1ccco1)c1ccncc1,inconclusive: 57%
2,CCc1cc2ccc(OC)cc2nc1SCC(=O)NNC(C)=O,inconclusive: 121%
3,COc1cc(/C=C2\SC(=S)N(NC(=O)c3ccncc3)C2=O)ccc1O,inconclusive: 93.4%
4,NC(=O)c1ccc(Oc2cccc3cccnc23)c([N+](=O)[O-])c1,inconclusive: 56.6%
5,CCN(CC)S(=O)(=O)c1ccc(N2CCCC2)c(NC(=O)c2ccncc2)c1,inconclusive: 67.2%
6,O=C(NCc1ccc2c(c1)OCO2)c1c[nH]c2ccc(S(=O)(=O)N3CCOCC3)cc2c1=O,inactive: 93.8%
7,O=c1c(CO)cc(CO)cc(CO)c1O,inconclusive: 52.7%
8,O=C(CCCCCNC(=O)c1ccccc1Br)N=Nc1c(O)[nH]c2ccccc12,inconclusive: 127%
9,CCOC(=O)c1cc(NC(=O)CC(C)(C)CC(=O)O)ccc1N1CCCCC1,inconclusive: 195%
10,COc1nc(-c2ccccc2)nnc1-c1ccccc1,inconclusive: 118%
11,Cc1ccc(S(=O)(=O)N(C)C)cc1NC(=O)C(C)OC(=O)/C=C/c1cccs1 (configuration not stated),inconclusive: 77.3%
12,O=S(=O)(Nc1nc2ccccc2nc1OCC(F)(F)F)c1cccs1,inconclusive: 107%
13,Cc1c(Cl)cccc1NC(=S)N(Cc1cccnc1)Cc1ccccc1Cl,inconclusive: 110%
14,Cn1c(SCC(=O)Nc2cccc(S(=O)(=O)N3CCOCC3)c2)nnc1-c1ccncc1,inconclusive: 113%
15,CSc1sc(C(=O)N2CCCCC2)c(-c2cccs2)c1C#N,inconclusive: -329%
16,CCOc1ccc2oc(C(=O)OCC(=O)NC(=O)NC)c(C)c2c1,inconclusive: 84.9%
17,CC(=O)Nc1ccc(NC(=O)C2CC(=O)Nc3ncnn32)cc1 (configuration not stated),inconclusive: 102%
18,COc1cc2c(cc1O)[C@@H]1Cc3cc(OC)c(OC)cc3C(C2)N1C,inconclusive: 92%
19,O=C(N/N=C/c1sc(N2CCOCC2)nc1-c1ccccc1)c1cccc(S(=O)(=O)N2CCCC2)c1,inconclusive: 171%

# — PubChem BioAssay AID1439 (NMMLSC, 2008)
